No constants are given. Whether binding was seen depends on the method and setting. In cells and extracts the contact can be indirect. Binding can be weak; no strength is given. Where a sequence is shown, tags or fusion partners need not be part of it.
What was measured:
[1] = molecular target: T1, Myc-tagged full-length murine Sun3 (Sun3FL) (mouse) (UniProt Q5SS91); test: co-IP; HeLa cells transiently co-transfected with Myc-SUN and EGFP-nesprin constructs, lysed in RIPA buffer 24 h after transfection; immunoprecipitation with anti-myc mAb overnight at 4°C, Dynabeads Protein G, blot with anti-EGFP; unspecific mouse IgG as control
T1 sequence: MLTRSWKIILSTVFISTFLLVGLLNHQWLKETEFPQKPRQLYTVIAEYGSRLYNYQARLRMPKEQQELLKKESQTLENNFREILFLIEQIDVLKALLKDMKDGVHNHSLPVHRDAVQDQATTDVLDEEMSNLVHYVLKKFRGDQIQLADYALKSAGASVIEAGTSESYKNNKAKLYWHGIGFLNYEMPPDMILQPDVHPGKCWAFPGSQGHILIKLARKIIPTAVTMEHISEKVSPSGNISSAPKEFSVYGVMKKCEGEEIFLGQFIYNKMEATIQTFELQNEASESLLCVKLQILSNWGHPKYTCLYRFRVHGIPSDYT

Sequences of proteins named here, by UniProt entry; tags and fusion partners are left off. A change or cut given only in a name is not applied to a line headed by its entry.
UniProt Q4FZC9: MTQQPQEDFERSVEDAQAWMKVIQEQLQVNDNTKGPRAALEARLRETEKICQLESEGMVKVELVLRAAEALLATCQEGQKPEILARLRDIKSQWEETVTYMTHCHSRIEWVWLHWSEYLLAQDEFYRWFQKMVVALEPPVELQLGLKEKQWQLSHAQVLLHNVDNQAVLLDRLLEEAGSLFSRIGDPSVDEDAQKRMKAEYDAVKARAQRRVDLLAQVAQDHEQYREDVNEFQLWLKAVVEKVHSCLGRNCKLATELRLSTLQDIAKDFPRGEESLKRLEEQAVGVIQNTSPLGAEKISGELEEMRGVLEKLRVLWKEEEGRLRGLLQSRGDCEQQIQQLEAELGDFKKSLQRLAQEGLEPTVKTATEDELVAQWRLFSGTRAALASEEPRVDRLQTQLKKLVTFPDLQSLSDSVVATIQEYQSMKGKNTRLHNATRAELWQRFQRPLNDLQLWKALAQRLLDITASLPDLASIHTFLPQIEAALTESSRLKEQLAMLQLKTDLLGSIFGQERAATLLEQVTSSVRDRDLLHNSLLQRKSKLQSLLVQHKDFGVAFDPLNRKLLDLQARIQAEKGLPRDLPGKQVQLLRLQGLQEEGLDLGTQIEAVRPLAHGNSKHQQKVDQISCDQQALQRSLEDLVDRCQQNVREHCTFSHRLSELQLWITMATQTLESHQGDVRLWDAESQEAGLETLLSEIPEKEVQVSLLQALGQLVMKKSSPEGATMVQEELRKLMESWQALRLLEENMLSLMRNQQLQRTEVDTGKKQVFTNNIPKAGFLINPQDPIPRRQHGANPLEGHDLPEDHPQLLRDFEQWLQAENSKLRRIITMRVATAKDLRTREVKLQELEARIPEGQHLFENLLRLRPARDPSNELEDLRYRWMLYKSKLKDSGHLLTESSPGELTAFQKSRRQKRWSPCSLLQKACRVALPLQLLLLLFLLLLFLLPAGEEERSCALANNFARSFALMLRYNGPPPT

[2] = molecular target: T2, Myc-tagged murine Sun1 amino acids 501-913 (Sun1TM+Lum) (mouse) (UniProt Q9D666); test: as above
T2 sequence: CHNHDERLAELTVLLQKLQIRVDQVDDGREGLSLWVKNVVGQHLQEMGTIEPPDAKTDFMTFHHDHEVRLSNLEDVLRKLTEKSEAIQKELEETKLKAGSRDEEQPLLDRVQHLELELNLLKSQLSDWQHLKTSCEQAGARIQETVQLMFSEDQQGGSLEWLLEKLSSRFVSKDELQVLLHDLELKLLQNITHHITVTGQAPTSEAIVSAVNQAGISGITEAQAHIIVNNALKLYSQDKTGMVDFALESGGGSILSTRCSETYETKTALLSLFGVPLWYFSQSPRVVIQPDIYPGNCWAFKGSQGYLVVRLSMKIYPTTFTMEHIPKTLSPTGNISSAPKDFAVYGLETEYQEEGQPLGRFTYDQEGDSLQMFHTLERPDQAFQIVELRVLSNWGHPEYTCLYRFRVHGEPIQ

Substance	binding [1]	binding [2]
EGFP-Nesprin1TM+KASH (74 C-terminal amino acids of murine Nesprin1) (from UniProt Q6ZWR6) (domain or fragment)	binds	
EGFP-Nesprin3TM+KASH (67 C-terminal amino acids of Nesprin3) (from UniProt Q4FZC9) (domain or fragment)	binds	binds

Reference: article PMC2919408
